## Percent effect of library compounds

A: 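Cell assay of Leishmania donovani living inside macrophages; the read-out is not stated. Concentration: 30 µM. The record gives no direction; compounds that gave an IC50 in retests scored well above the rest, so higher reads as stronger inhibition. About 69,000 compounds were tested under these conditions; 1.5% (about 1,000) showed 50% or more at least once.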
B: 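Assay of Toxoplasma gondii numbers, read through their beta-galactosidase reporter with a colour substrate. Concentration: 10 µM. The record gives no direction; the compounds picked for IC50 retests had high values, so higher reads as fewer parasites. Of about 67,000 compounds tested this way, about 260 (0.38%) reached 50% or more in at least one test.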

The filed quantity is “Percent Effect” (%).
The controls that fix the scale are not given in the record; negative values are as filed.
Compounds were drawn at random from those tested, without regard to their results.
Two or more numbers in one place are separate tests of the same structure; such repeats can differ widely.

{"compound": "N#Cc1c(N2CCN(CC3CCOC3)CC2)nc2ccccn12", "stereo": "configuration not stated", "A": -15.14, "B": -3.527}
{"compound": "N#CCCSc1sc2c(O)cc(O)nc2c1C#N", "A": 11.84, "B": -7.033}
{"compound": "CCCN(Cc1cnn(C)c1)S(=O)(=O)c1cc(C)cc(F)c1", "A": 4.18, "B": 35.82}
{"compound": "Cn1ccc2c(ccn2CC(=O)Nc2ccc(Br)cc2)c1=O", "A": 10.1, "B": 9.315}
{"compound": "O=C(c1c[nH]c(=O)[nH]1)N1CCCC2(CCC(=O)N(C3CCCC3)C2)C1", "stereo": "configuration not stated", "A": 25.14, "B": 11.14}
{"compound": "Cn1cc(Cl)c(CN(Cc2ccsc2)CC2CCCO2)n1", "stereo": "configuration not stated", "A": 16.43, "B": 25.63}
{"compound": "Nc1cc(CCC2CN(Cc3cccc(C(=O)O)c3)CCO2)ccn1", "stereo": "configuration not stated", "A": "7.67 & 8.1", "B": 4.683}
{"compound": "N#Cc1cccc(CN2CCn3cc(Cn4cccn4)nc3C2)c1.O=C(O)C(F)(F)F.O=C(O)C(F)(F)F", "A": 18.5, "B": 0.5753}
{"compound": "CCCNC(=O)NCc1cccnc1OC", "A": 11.64, "B": -1.471}
{"compound": "Cc1ccc(-n2nnc(C(=O)Nc3cc(C)nn3C)c2C2CC2)cc1", "A": 3.283, "B": 4.523}
{"compound": "COc1ccc(C(=O)N(C)Cc2c(C)noc2C)cn1", "A": -13.4, "B": -9.718}
{"compound": "CCc1nnsc1C(=O)N1CCCN(Cc2nccn2C)CC1", "A": 17.47, "B": -0.6497}
{"compound": "COCCN1C[C@@H](C)[C@@]2(COCCN(C(=O)c3ccncc3)C2)C1.O=C(O)C(F)(F)F.O=C(O)C(F)(F)F", "A": 13.22, "B": 5.296}
{"compound": "Cc1cccc(CNC2CC(=O)N(Cc3cccc(F)c3)C2)c1", "stereo": "configuration not stated", "A": -16.58, "B": 2.469}
{"compound": "O=C(C[S+]([O-])Cc1csc(C2CCCC2)n1)NC1CCCC1", "stereo": "configuration not stated", "A": -27.51, "B": 3.119}
{"compound": "CCc1nnnn1Cc1csc(N(C)C(C)=O)n1", "A": 13.58, "B": -10.46}
{"compound": "Cc1noc(C)c1CSC1CCCN(c2cnn(C)c2)C1=O", "stereo": "configuration not stated", "A": 19.39, "B": -29.49}
{"compound": "c1cc2cc[nH]c2c(CC2CN(Cc3cscn3)C2)n1", "A": 36.4, "B": 13.87}
{"compound": "Cc1ccc(NCCCc2c(C)noc2C)nn1", "A": 18.7, "B": 6.51}
{"compound": "CCOCC1CN(Cc2cccnc2)Cc2nn(C)cc21.O=C(O)C(F)(F)F.O=C(O)C(F)(F)F", "stereo": "configuration not stated", "A": 22.86, "B": 4.697}
{"compound": "CC(Cc1cccc(F)c1)C(=O)NS(=O)(=O)c1cnn(C)c1", "stereo": "configuration not stated", "A": 38.19, "B": 0.758}
{"compound": "COc1cc(Oc2ccc(C(N)=O)cn2)ccc1CN1CCCC1", "A": 11.83, "B": 15}
{"compound": "Cc1cc(N(C)C)nc(C2COCCN2Cc2cscn2)n1", "stereo": "configuration not stated", "A": 4.988, "B": -27.45}
{"compound": "CN(C)C(=O)Cn1cc(C(=O)N2CCCc3cccc(F)c32)nn1", "A": -19, "B": 9.837}
{"compound": "Cc1noc(CNc2cc3c(cc2Cl)OCCCO3)n1", "A": 3.775, "B": -0.5461}
{"compound": "N#Cc1cccnc1N1CCCN(CC(=O)N2CCNC(=O)C2)CC1", "A": 19.53, "B": 1.561}

2 of the entries, repeated:

| compound | A | B |
|---|---|---|
| `CCc1nnnn1Cc1csc(N(C)C(C)=O)n1` | 13.58% | -10.46% |
| `CCCNC(=O)NCc1cccnc1OC` | 11.64% | -1.471% |

The values are deposited in ChEMBL (CHEMBL3988442, “University of Dundee, Small-Polar-MMV Screening Library” (2021)).